Source: ChEMBL document CHEMBL5674883, “The Heterochromatin Landscape in Migrating Cells and the Importance of H3K27me3 for Associated Transcriptome Alterations” (Cells, 2018)
The source gives many values for each of these; only a part stands here.

Sequences of proteins named here, by UniProt entry; tags and fusion partners are left off.
UniProt Q61188, whole entry: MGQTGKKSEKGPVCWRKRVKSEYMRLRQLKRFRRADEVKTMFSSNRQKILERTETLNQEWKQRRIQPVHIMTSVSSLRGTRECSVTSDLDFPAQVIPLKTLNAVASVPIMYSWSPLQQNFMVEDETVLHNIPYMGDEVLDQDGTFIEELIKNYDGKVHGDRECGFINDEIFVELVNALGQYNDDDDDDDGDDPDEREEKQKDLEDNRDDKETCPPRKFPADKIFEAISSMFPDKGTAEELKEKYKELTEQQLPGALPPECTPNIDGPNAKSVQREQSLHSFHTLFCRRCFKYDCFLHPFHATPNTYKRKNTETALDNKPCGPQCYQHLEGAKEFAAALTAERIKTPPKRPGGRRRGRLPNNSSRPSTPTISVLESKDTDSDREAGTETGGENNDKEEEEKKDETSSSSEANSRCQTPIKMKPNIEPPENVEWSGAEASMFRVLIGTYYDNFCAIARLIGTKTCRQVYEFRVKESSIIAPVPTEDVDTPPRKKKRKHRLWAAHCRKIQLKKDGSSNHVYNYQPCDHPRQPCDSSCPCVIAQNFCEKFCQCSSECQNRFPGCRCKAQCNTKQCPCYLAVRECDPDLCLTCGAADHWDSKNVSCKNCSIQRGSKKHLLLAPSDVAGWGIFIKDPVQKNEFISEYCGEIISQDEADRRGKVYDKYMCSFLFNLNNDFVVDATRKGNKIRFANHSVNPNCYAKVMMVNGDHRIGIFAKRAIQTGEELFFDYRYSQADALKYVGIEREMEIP

Assays:
Assay type in all cases: cell-based
[1] = target: Histone-lysine N-methyltransferase EZH2 (Mus musculus) (UniProt Q61188); assay: Inhibition of EZH2 in mouse B16-F1 migrating cells assessed as fold change in H3K27me3-buffered regulated Cdh19-mRNA expression at 3 uM measured by ChIP-seq analysis relative to control cells
[2] = target: Histone-lysine N-methyltransferase EZH2 (Mus musculus) (UniProt Q61188); assay: Inhibition of EZH2 in mouse B16-F1 migrating cells assessed as fold change in H3K27me3-buffered regulated Spry1-mRNA expression at 3 uM measured by ChIP-seq analysis relative to control cells
[3] = target: Histone-lysine N-methyltransferase EZH2 (Mus musculus) (UniProt Q61188); assay: Inhibition of EZH2 in mouse B16-F1 migrating cells assessed as fold change in H3K27me3-buffered regulated Zc3h11a-mRNA expression at 3 uM measured by ChIP-seq analysis relative to control cells
[4] = target: Histone-lysine N-methyltransferase EZH2 (Mus musculus) (UniProt Q61188); assay: Inhibition of EZH2 in mouse B16-F1 migrating cells assessed as fold change in H3K27me3-buffered regulated Adamts1-mRNA expression at 3 uM measured by ChIP-seq analysis relative to control cells
[5] = target: Histone-lysine N-methyltransferase EZH2 (Mus musculus) (UniProt Q61188); assay: Inhibition of EZH2 in mouse B16-F1 migrating cells assessed as fold change in H3K27me3-buffered regulated L3hypdh-mRNA expression at 3 uM measured by ChIP-seq analysis relative to control cells
[6] = target: Histone-lysine N-methyltransferase EZH2 (Mus musculus) (UniProt Q61188); assay: Inhibition of EZH2 in mouse B16-F1 migrating cells assessed as fold change in H3K27me3-buffered regulated Fnbp1l-mRNA expression at 3 uM measured by ChIP-seq analysis relative to control cells
[7] = target: Histone-lysine N-methyltransferase EZH2 (Mus musculus) (UniProt Q61188); assay: Inhibition of EZH2 in mouse B16-F1 migrating cells assessed as fold change in H3K27me3-buffered regulated Gm16316-mRNA expression at 3 uM measured by ChIP-seq analysis relative to control cells
[8] = target: Histone-lysine N-methyltransferase EZH2 (Mus musculus) (UniProt Q61188); assay: Inhibition of EZH2 in mouse B16-F1 migrating cells assessed as fold change in H3K27me3-buffered regulated Nedd4l-mRNA expression at 3 uM measured by ChIP-seq analysis relative to control cells
[9] = target: Histone-lysine N-methyltransferase EZH2 (Mus musculus) (UniProt Q61188); assay: Inhibition of EZH2 in mouse B16-F1 migrating cells assessed as fold change in H3K27me3-buffered regulated Sdc4-mRNA expression at 3 uM measured by ChIP-seq analysis relative to control cells
[10] = target: Histone-lysine N-methyltransferase EZH2 (Mus musculus) (UniProt Q61188); assay: Inhibition of EZH2 in mouse B16-F1 migrating cells assessed as fold change in H3K27me3-buffered regulated Nr2f2-mRNA expression at 3 uM measured by ChIP-seq analysis relative to control cells
[11] = target: T1, RNA polymerase II (Mus musculus) (UniProt P08775+Q8CFI7+P97760+A0A3Q4L2S8+Q80UW8+P61219+P62488+Q923G2+P60898+O08740+Q63871+P62876); assay: Inhibition of RNA polymerase II in mouse B16-F1 migrating cells assessed as fold change in Pcnp-RNA stability at 0.1 mM measured by ChIP-seq analysis relative to control cells
[12] = target: T1, RNA polymerase II (Mus musculus); assay: Inhibition of RNA polymerase II in mouse B16-F1 migrating cells assessed as fold change in Ssb-RNA stability at 0.1 mM measured by ChIP-seq analysis relative to control cells
[13] = target: T1, RNA polymerase II (Mus musculus); assay: Inhibition of RNA polymerase II in mouse B16-F1 migrating cells assessed as fold change in Zfp326-RNA stability at 0.1 mM measured by ChIP-seq analysis relative to control cells
[14] = target: T1, RNA polymerase II (Mus musculus); assay: Inhibition of RNA polymerase II in mouse B16-F1 migrating cells assessed as fold change in Cep83-RNA stability at 0.1 mM measured by ChIP-seq analysis relative to control cells
[15] = target: T1, RNA polymerase II (Mus musculus); assay: Inhibition of RNA polymerase II in mouse B16-F1 migrating cells assessed as fold change in Efr3a-RNA stability at 0.1 mM measured by ChIP-seq analysis relative to control cells
[16] = target: T1, RNA polymerase II (Mus musculus); assay: Inhibition of RNA polymerase II in mouse B16-F1 migrating cells assessed as fold change in Lztfl1-RNA stability at 0.1 mM measured by ChIP-seq analysis relative to control cells
[17] = target: T1, RNA polymerase II (Mus musculus); assay: Inhibition of RNA polymerase II in mouse B16-F1 migrating cells assessed as fold change in Rdm1-RNA stability at 0.1 mM measured by ChIP-seq analysis relative to control cells
[18] = target: T1, RNA polymerase II (Mus musculus); assay: Inhibition of RNA polymerase II in mouse B16-F1 migrating cells assessed as fold change in Smarcb1-RNA stability at 0.1 mM measured by ChIP-seq analysis relative to control cells
[19] = target: T1, RNA polymerase II (Mus musculus); assay: Inhibition of RNA polymerase II in mouse B16-F1 migrating cells assessed as fold change in Vps50-RNA stability at 0.1 mM measured by ChIP-seq analysis relative to control cells
[20] = target: T1, RNA polymerase II (Mus musculus); assay: Inhibition of RNA polymerase II in mouse B16-F1 migrating cells assessed as fold change in Smc5-RNA stability at 0.1 mM measured by ChIP-seq analysis relative to control cells
[21] = target: T1, RNA polymerase II (Mus musculus); assay: Inhibition of RNA polymerase II in mouse B16-F1 migrating cells assessed as fold change in Btbd2-RNA stability at 0.1 mM measured by ChIP-seq analysis relative to control cells
[22] = target: T1, RNA polymerase II (Mus musculus); assay: Inhibition of RNA polymerase II in mouse B16-F1 migrating cells assessed as fold change in Retreg2-RNA stability at 0.1 mM measured by ChIP-seq analysis relative to control cells
[23] = target: T1, RNA polymerase II (Mus musculus); assay: Inhibition of RNA polymerase II in mouse B16-F1 migrating cells assessed as fold change in Akap11-RNA stability at 0.1 mM measured by ChIP-seq analysis relative to control cells
[24] = target: T1, RNA polymerase II (Mus musculus); assay: Inhibition of RNA polymerase II in mouse B16-F1 migrating cells assessed as fold change in Csnk2a1-RNA stability at 0.1 mM measured by ChIP-seq analysis relative to control cells
[25] = target: T1, RNA polymerase II (Mus musculus); assay: Inhibition of RNA polymerase II in mouse B16-F1 migrating cells assessed as fold change in Cst6-RNA stability at 0.1 mM measured by ChIP-seq analysis relative to control cells
[26] = target: T1, RNA polymerase II (Mus musculus); assay: Inhibition of RNA polymerase II in mouse B16-F1 migrating cells assessed as fold change in Esco2-RNA stability at 0.1 mM measured by ChIP-seq analysis relative to control cells
[27] = target: T1, RNA polymerase II (Mus musculus); assay: Inhibition of RNA polymerase II in mouse B16-F1 migrating cells assessed as fold change in Fam57a-RNA stability at 0.1 mM measured by ChIP-seq analysis relative to control cells
[28] = target: T1, RNA polymerase II (Mus musculus); assay: Inhibition of RNA polymerase II in mouse B16-F1 migrating cells assessed as fold change in Selenof-RNA stability at 0.1 mM measured by ChIP-seq analysis relative to control cells
[29] = target: T1, RNA polymerase II (Mus musculus); assay: Inhibition of RNA polymerase II in mouse B16-F1 migrating cells assessed as fold change in Stk3-RNA stability at 0.1 mM measured by ChIP-seq analysis relative to control cells
[30] = target: T1, RNA polymerase II (Mus musculus); assay: Inhibition of RNA polymerase II in mouse B16-F1 migrating cells assessed as fold change in Pfkl-RNA stability at 0.1 mM measured by ChIP-seq analysis relative to control cells

CCCc1cc(C)[nH]c(=O)c1CNC(=O)c1cc(-c2ccnc(N3CCN(C)CC3)c2)cc2c1cnn2C(C)C
log2FC [1]: -0.46 | log2FC [2]: -0.41 | log2FC [3]: -0.38 | log2FC [4]: -1.04 | log2FC [5]: -0.45 | log2FC [6]: -0.44 | log2FC [7]: 1.17 | log2FC [8]: 0.39 | log2FC [9]: -0.55 | log2FC [10]: -0.77

OC[C@H]1O[C@@H](n2cnc3cc(Cl)c(Cl)cc32)[C@H](O)[C@@H]1O
log2FC [11]: -0.48 | log2FC [12]: -1.18 | log2FC [13]: -0.7 | log2FC [14]: -1.01 | log2FC [15]: -0.41 | log2FC [16]: -0.83 | log2FC [17]: 0.67 | log2FC [18]: 0.43 | log2FC [19]: -0.57 | log2FC [20]: -0.79 | log2FC [21]: 0.46 | log2FC [22]: 0.42 | log2FC [23]: -0.55 | log2FC [24]: -0.48 | log2FC [25]: 0.52 | log2FC [26]: -1.2 | log2FC [27]: 0.45 | log2FC [28]: -0.75 | log2FC [29]: -0.48 | log2FC [30]: 0.78
